Publication doi:10.1101/871517
Like-named read-outs stand apart in the source and are kept apart here. These are yes or no findings as the source states them, for the method shown. Binding seen in cells or lysates may run through a third protein. Some binding calls cover weakened binding; strength is not graded here. For part of these data: Sequences can lack the tags named with a protein.

Sequences of proteins named here, by UniProt entry; tags and fusion partners are left off.
UniProt Q9NP72: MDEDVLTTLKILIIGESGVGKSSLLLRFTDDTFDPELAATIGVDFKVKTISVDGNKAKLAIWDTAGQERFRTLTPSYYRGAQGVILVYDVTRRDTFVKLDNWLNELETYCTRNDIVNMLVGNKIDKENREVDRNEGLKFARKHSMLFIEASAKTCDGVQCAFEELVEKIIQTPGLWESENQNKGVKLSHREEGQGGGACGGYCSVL
UniProt P32019: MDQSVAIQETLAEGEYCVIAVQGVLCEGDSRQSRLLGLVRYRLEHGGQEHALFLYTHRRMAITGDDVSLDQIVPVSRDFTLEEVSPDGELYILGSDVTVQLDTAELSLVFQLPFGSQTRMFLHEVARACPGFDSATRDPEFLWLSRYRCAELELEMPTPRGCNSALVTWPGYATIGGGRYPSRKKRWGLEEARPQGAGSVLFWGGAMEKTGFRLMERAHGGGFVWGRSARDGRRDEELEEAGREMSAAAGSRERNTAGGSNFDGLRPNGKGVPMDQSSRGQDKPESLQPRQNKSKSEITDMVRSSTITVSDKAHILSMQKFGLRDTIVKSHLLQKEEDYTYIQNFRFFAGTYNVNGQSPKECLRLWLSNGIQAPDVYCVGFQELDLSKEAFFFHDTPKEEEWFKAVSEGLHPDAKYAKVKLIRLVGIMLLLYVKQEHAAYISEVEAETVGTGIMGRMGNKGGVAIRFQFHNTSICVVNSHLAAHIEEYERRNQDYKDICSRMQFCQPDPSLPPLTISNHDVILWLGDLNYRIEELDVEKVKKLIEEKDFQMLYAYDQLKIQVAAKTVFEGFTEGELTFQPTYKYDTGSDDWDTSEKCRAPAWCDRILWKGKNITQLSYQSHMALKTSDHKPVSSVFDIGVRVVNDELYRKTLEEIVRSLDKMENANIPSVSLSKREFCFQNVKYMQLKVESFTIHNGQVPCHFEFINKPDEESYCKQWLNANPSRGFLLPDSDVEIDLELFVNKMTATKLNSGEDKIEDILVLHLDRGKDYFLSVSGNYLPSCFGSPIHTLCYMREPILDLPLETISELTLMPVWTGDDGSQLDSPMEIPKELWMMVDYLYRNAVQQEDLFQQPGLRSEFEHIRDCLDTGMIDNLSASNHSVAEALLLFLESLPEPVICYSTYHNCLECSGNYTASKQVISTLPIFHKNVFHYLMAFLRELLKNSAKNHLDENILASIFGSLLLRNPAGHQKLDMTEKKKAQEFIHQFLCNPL

Key:
HA-RAB18 [1] = biological target: HA-RAB18 (UniProt Q9NP72); experiment: co-IP
HA-RAB18 [2] = biological target: HA-RAB18 (UniProt Q9NP72); experiment: co-IP; remark: listed apart in the source

Row | binding (HA-RAB18 [1]) | binding (HA-RAB18 [2]) | Molecule
1 | binds |  | mCherry-INPP5B (from UniProt P32019 1-993)
2 |  | binds | mEmerald-SEC22A (protein, UniProt Q96IW7 1-307) MSMILSASVIRVRDGLPLSASTDYEQSTGMQECRKYFKMLSRKLAQLPDRCTLKTGHYNINFISSLGVSYMMLCTENYPNVLAFSFLDELQKEFITTYNMMKTNTAVRPYCFIEFDNFIQRTKQRYNNPRSLSTKINLSDMQTEIKLRPPYQISMCELGSANGVTSAFSVDCKGAGKISSAHQRLEPATLSGIVGFILSLLCGALNLIRGFHAIESLLQSDGDDFNYIIAFFLGTAACLYQCYLLVYYTGWRNVKSFLTFGLICLCNMYLYELRNLWQLFFHVTVGAFVTLQIWLRQAQGKAPDYDV
3 |  | binds | TMCO4-EGFP (protein, UniProt Q5TGY1 1-634) MAMWNRPCQRLPQQPLVAEPTAEGEPHLPTGRELTEANRFAYAALCGISLSQLFPEPEHSSFCTEFMAGLVQWLELSEAVLPTMTAFASGLGGEGADVFVQILLKDPILKDDPTVITQDLLSFSLKDGHYDARARVLVCHMTSLLQVPLEELDVLEEMFLESLKEIKEEESEMAEASRKKKENRRKWKRYLLIGLATVGGGTVIGVTGGLAAPLVAAGAATIIGSAGAAALGSAAGIAIMTSLFGAAGAGLTGYKMKKRVGAIEEFTFLPLTEGRQLHITIAVTGWLASGKYRTFSAPWAALAHSREQYCLAWEAKYLMELGNALETILSGLANMVAQEALKYTVLSGIVAALTWPASLLSVANVIDNPWGVCLHRSAEVGKHLAHILLSRQQGRRPVTLIGFSLGARVIYFCLQEMAQEKDCQGIIEDVILLGAPVEGEAKHWEPFRKVVSGRIINGYCRGDWLLSFVYRTSSVQLRVAGLQPVLLQDRRVENVDLTSVVSGHLDYAKQMDAILKAVGIRTKPGWDEKGLLLAPGCLPSEEPRQAAAAASSGETPHQVGQTQGPISGDTSKLAMSTDPSQAQVPVGLDQSEGASLPAAASPERPPICSHGMDPNPLGCPDCACKTQGPSTGLD
